Laboratory results reported in article PMC6877594, “Atomic structure of the human herpesvirus 6B capsid and capsid-associated tegument complexes” (Nature Communications, 2019).
Where two headings read alike, the source gives them in different places. No constants are given. Whether binding was seen depends on the method and setting. Some binding calls cover weakened binding; strength is not graded here.

Chains of the proteins cited; added tags and fusions are not shown.
UniProt P0DTP3: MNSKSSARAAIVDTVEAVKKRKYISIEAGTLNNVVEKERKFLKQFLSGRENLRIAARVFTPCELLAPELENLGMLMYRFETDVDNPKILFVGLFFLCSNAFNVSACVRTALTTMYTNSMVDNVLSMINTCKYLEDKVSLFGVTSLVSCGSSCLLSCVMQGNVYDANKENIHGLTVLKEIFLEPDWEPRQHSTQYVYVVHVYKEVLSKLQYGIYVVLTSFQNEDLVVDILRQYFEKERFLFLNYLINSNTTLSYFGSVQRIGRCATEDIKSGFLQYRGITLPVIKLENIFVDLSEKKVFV

T1: major capsid protein (MCP) of human herpesvirus 6B (human herpesvirus 6B (Z29 strain)) (UniProt Q9QJ26)
T1 sequence: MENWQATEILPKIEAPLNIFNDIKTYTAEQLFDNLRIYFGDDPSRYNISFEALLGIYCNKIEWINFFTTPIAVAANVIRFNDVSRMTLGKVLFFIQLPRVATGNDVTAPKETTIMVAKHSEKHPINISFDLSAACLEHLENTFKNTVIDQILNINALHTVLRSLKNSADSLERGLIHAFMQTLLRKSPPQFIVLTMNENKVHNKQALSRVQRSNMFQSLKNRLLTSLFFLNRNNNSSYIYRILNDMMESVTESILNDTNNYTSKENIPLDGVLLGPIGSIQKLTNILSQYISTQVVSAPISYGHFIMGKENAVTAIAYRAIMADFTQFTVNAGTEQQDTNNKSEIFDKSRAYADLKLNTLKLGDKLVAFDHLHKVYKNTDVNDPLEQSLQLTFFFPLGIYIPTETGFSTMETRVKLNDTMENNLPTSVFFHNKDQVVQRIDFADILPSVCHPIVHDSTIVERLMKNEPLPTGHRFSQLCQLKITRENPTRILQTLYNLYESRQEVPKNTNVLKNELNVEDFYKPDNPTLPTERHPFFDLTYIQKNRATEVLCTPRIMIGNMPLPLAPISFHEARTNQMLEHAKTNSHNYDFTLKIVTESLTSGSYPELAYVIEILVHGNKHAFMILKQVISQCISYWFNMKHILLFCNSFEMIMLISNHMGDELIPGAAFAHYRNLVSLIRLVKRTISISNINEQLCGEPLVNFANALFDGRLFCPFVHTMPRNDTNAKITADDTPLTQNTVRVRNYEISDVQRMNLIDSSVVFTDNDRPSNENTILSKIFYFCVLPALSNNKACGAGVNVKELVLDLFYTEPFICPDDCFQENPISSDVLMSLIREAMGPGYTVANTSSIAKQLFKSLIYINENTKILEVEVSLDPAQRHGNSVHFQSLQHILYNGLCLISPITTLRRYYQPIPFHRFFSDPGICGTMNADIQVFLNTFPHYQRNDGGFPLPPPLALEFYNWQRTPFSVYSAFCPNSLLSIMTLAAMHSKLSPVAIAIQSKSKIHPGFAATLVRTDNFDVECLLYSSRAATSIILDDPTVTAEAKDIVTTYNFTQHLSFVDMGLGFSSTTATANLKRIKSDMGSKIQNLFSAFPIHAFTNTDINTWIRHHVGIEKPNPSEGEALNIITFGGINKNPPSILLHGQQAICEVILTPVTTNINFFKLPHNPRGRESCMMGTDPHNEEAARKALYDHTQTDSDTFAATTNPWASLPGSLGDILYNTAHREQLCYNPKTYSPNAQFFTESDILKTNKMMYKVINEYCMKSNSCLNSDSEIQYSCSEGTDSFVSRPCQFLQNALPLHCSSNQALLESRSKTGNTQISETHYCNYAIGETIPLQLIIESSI

T2: triplex dimer protein (Tri2) of human herpesvirus 6B (human herpesvirus 6B (Z29 strain)) (UniProt Q9QJ27)
T2 sequence: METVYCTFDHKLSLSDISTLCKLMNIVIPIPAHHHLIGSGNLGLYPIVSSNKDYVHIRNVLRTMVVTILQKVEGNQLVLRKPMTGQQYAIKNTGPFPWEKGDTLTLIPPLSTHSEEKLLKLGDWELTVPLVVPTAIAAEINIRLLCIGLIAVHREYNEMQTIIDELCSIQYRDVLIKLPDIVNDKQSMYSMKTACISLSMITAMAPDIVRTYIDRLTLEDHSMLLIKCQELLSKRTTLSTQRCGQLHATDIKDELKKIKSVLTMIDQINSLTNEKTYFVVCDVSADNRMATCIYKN

T3: smallest capsid protein (SCP) of human herpesvirus 6B, U32 gene product (human herpesvirus 6B (Z29 strain)) (UniProt P0DTP1)
T3 sequence: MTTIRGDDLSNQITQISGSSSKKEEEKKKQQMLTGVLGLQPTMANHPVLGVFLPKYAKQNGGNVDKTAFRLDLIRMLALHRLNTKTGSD

B1: major capsid protein (MCP) of human herpesvirus 6B (natural protein)
chain: T1 sequence
notes: major capsid protein (MCP) of human herpesvirus 6B, strain Z29; 1345 amino acids long; domains described over a.a; 1-1345; Native protein in the virion capsid; 16 conformers (15 hexon, 1 penton) modelled in each asymmetric unit; also called penton MCP; hexon MCP
B2: tegument protein pU11 of human herpesvirus 6B (natural protein)
chain: MDLKAQSIPFAWLDRDKVQRLTNFLSNLENLENVDLREHPYVTNSCVVREGEDVDELKTLYNTFILWLMYHYVLSKRKPDYNAIWQDITKLQNVVNEYLKSKGLNKGNFENMFTNKEKFESQFSDIHRALLRLGNSIRWGSNVPIDTPYVNLTAEDSSEIENNLQDAEKNMLWYTVYNINDPWDENGYLVTSINKLVYLGKLFVTLNQSWSKLEKVAMSQIVTTQNHLSGHLRKNENFNAVYSQRVLQTPLTGQRVESFLKIITSDYEIIKSSLESYSASKAFSVPENGPHSLMDFASLDGRMPSDLSLPSISIDTKRPSADLARLKISQPKSLDAPLKTQRRHKFPESDSVDNAGGKILIKKETLGGRDVRATTPVSSVSLMSGVEPLSSLTSTNLDLRDKSHGNYRIGPSGILDFGVKLPAEAQSNTGDVDLLQDKTSIRSPSSGITDVVNGLANLNLRQNKSDVSRPWSKNTAANADVFDPVHRLVSEQTGTPFVLNNSDVAGSEAKLTTHSTETGVSPHNVSLIKDLRDKDGFRKQKKLDLLGSWTKEKNDKAIVHSREVTGDSGDATETVTARDSPVLRKTKHANDIFAGLNKKYARDVSRGGKGNSRDLYSGGNAEKKETSGKFNVDKEMTQNEQEPLPNLMEAARNAGEEQYVQAGLGQRVNKILAEFTNLISLGEKGIQDILHNQSGTELKLPTENKLGRESEEANVERILEVSDPQNLFKNFKLQNDLDSVQSPFRLPNADLSRDLDSVSFKDALDVKLPGNGEREIDLALQKVKAGERETSDFKVGQDETLIPTQLMKVETPEEKDDVIEKMVLRIRQDGETDEETVPGPGVAESLGIAAKDKSVIAS
notes: tegument protein pU11 of human herpesvirus 6B, strain Z29; 858 a.a. long; wild-type full-length protein inside the virion, only a.a; 7-275 (pU11nt) are resolved and modelled; also called pU11nt (the resolved N-terminal one-third, a.a. 7-275); pU11nt-a-1
B3: smallest capsid protein (SCP) of human herpesvirus 6B, U32 gene product (natural protein)
chain: T3 sequence
notes: smallest capsid protein (SCP), U32 gene product of human herpesvirus 6B, strain Z29; 89 residues long; the model covers residues 23-83, residues 1-22 are disordered; Native protein in the virion capsid; 16 conformers modelled in each asymmetric unit; also called penton SCP; hexon SCP
B4: triplex dimer protein (Tri2) of human herpesvirus 6B (natural protein)
chain: T2 sequence
notes: triplex dimer protein (Tri2) of human herpesvirus 6B, strain Z29; domains clamp (a.a. 1-86), trunk (a.a. 87-181 and 276-296), embracing arm (a.a. 182-275); Native protein in the virion capsid; two conformers (Tri2A, Tri2B) of the same protein in each triplex; also called Tri2A; Tri2B

What was measured:
Test in all cases: cryo-EM structure; in situ in HHV-6B (Z29) virions pelleted from SupT1 culture supernatant and resuspended in PBS; icosahedral reconstruction ~5.1 Å, sub-particle reconstructions at the fivefold, threefold and twofold axes at 3.82, 3.77 and 3.77 Å; atomic models of 59 conformers
[1] = biological target: T1, major capsid protein (MCP) of human herpesvirus 6B (human herpesvirus 6B (Z29 strain))
[2] = biological target: T2, triplex dimer protein (Tri2) of human herpesvirus 6B (human herpesvirus 6B (Z29 strain))
[3] = biological target: T1, major capsid protein (MCP) of human herpesvirus 6B (human herpesvirus 6B (Z29 strain)); remark: listed apart in the source
[4] = biological target: T3, smallest capsid protein (SCP) of human herpesvirus 6B, U32 gene product (human herpesvirus 6B (Z29 strain))
[5] = biological target: tegument protein pU11 of human herpesvirus 6B (human herpesvirus 6B (Z29 strain)) (UniProt P0DTO1)
[6] = biological target: T2, triplex dimer protein (Tri2) of human herpesvirus 6B (human herpesvirus 6B (Z29 strain)); remark: listed apart in the source
[7] = biological target: triplex monomer protein (Tri1) of human herpesvirus 6B (human herpesvirus 6B (Z29 strain)) (UniProt P0DTP3)

Row | Molecule | binding [3] | binding [6] | also measured
1 | triplex monomer protein (Tri1) of human herpesvirus 6B (from UniProt P0DTP3 1-299) |  |  | binding [1]: binds; binding [2]: binds
2 | B1 | binds |  | 
3 | B2 | binds | binds | binding [4]: binds; binding [5]: binds; binding [7]: binds
4 | B3 | binds |  | 
5 | B4 |  | binds | 
